In article PMC7819943, “Rice protein-binding microarrays: a tool to detect cis-acting elements near promoter regions in rice”:
This is one part of the list.

Protein sequences, listed by entry. Tags and fused reporters are not part of them.
UniProt Q0JBA9, entry or part of it: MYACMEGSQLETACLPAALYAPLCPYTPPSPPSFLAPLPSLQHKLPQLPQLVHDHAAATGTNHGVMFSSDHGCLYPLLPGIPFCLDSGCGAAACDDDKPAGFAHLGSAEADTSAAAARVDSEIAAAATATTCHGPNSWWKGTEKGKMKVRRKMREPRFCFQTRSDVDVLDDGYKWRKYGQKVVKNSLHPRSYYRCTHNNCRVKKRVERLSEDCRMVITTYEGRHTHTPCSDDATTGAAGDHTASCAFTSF

Each sequence was assayed against OsWRKY34 (Oryza sativa, UniProt Q0JBA9 1-250) (assay: protein-binding microarray (RPBM); PBS, 2% BSA, 51.3 ng/ul salmon testes DNA, 50 uM zinc acetate, 200 nM TF, 25 C, 1 h; high values mean tight binding). Settings: protein: recombinant; tags: N-terminal polyhistidine and DsRed monomer fusion (pET32a); label: CyDye5-dUTP incorporated in the synthesized complementary strand; 3' TTTTT single-stranded linker to array surface; dsDNA, one strand shown.
In short: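 An Axon 4000B scanner gave the binding signal as per-feature fluorescence intensity in arbitrary units. This followed washing of a custom Agilent array that had been incubated for 1 h at 25 °C with 200 nM protein in PBS, 2% BSA, salmon testes DNA and 50 µM zinc acetate. The proteins were transcription factors fused at the N-terminus to polyhistidine and DsRed, expressed in E. coli BL21-CodonPlus and purified on Ni–NTA.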

How did the binding signal turn out when “TATGTTTCTGTGGTAAGGCCCATGAAGTTTTCGGTGAGAGCGGAGTCACCTAGTGCAG” was run?
The binding signal was 8660 fluorescence intensity (a.u.).

Which binding signal does the source give for “CGTTTTGTGCTTCTACCTGTTAATCTATCTGATGGTTTTCCGGAGTCACCTAGTGCAG” here?
Its binding signal is 12700 fluorescence intensity (a.u.).

Which binding signal does the source give for “GCAGTTTCAGTGTGTGTTTGGTTGCAAGTTGTTGCATCTGCGGAGTCACCTAGTGCAG” here?
Its binding signal is 8410 fluorescence intensity (a.u.).

How did the binding signal turn out when “GGATATTGAGATGCCTAGTTACCTGGGACTGCTTACACTACGGAGTCACCTAGTGCAG” was run?
Its binding signal is 8820 fluorescence intensity (a.u.).

How did the binding signal turn out when “GACCTACATCCAATCCAACACCACACCACACCATTTTTTTCGGAGTCACCTAGTGCAG” was run?
The binding signal was 13600 fluorescence intensity (a.u.).

“GCCTACGACCCGCGCTCCGACCCTGACCCGCCCTGCCTCGCGGAGTCACCTAGTGCAG” was tested. Which binding signal did it give?
Its binding signal is 8750 fluorescence intensity (a.u.).

Which binding signal does the source give for “GACGGTCGTAAAATTCGTGGTGTTTCTGTTCATCTTAGCTCGGAGTCACCTAGTGCAG” here?
The binding signal was 8110 fluorescence intensity (a.u.).

With “TCATCTGCACGAGGGCGTGGTTGGTTCTTGCTTGTGTGAGCGGAGTCACCTAGTGCAG” as the sequence, how does the binding signal read?
The binding signal was 9020 fluorescence intensity (a.u.).

How did the binding signal turn out when “CCACCGCCGCCGCCGCCGCCGCGCCATCGCCGCCTCCACCCGGAGTCACCTAGTGCAG” was run?
The binding signal was 9910 fluorescence intensity (a.u.).

With “ATTAATATCTACCCTATTTTCATAACGTCTCGTATCTTATCGGAGTCACCTAGTGCAG” as the sequence, how does the binding signal read?
Its binding signal is 8200 fluorescence intensity (a.u.).

How did the binding signal turn out when “CCACCGCCGCTCGCGGGAGAGACTCTGGTTTTTTTTGGGGCGGAGTCACCTAGTGCAG” was run?
The binding signal was 8840 fluorescence intensity (a.u.).

“CCAGATCGCTCACAGATCCTCCCAACTCGCTCACCTTCTTCGGAGTCACCTAGTGCAG” was tested. Which binding signal did it give?
Its binding signal is 8800 fluorescence intensity (a.u.).

For “CCCGACACCGCCATGGCCGCCGCCGTCCGCCGCCTCCTGCCGGAGTCACCTAGTGCAG”, which binding signal is on record?
The binding signal was 12600 fluorescence intensity (a.u.).

With “CCCAAATATTGTACTTGTGTGATTGTAATGAATATATAGCCGGAGTCACCTAGTGCAG” as the sequence, how does the binding signal read?
The binding signal was 8430 fluorescence intensity (a.u.).

How did the binding signal turn out when “GCCGATGTCTCCTCTTGCTACCAAGCTAGACCCACACGTTCGGAGTCACCTAGTGCAG” was run?
The binding signal was 8270 fluorescence intensity (a.u.).

“GCATTACTAGGGTATTGACATTGTCAGTTTTCTCTAAACCCGGAGTCACCTAGTGCAG” was tested. Which binding signal did it give?
Its binding signal is 8150 fluorescence intensity (a.u.).

“GCTCTTGGTCTCGAGTCTCGACAGCGACCCGGTTGGTCAACGGAGTCACCTAGTGCAG” was tested. Which binding signal did it give?
Its binding signal is 9410 fluorescence intensity (a.u.).

“TCTCACTTTTACTCGCATGTTTCGCTATGCACATGTTTTTCGGAGTCACCTAGTGCAG” was tested. Which binding signal did it give?
Its binding signal is 8570 fluorescence intensity (a.u.).

For “AAAAAAATTATGGATGGGGTTATTAGTAACAGTCATTTTGCGGAGTCACCTAGTGCAG”, which binding signal is on record?
Its binding signal is 8040 fluorescence intensity (a.u.).

For “GAGTTTTGTAAGTAGAGTGCTCTCTCACCTTTTCTTCACTCGGAGTCACCTAGTGCAG”, which binding signal is on record?
Its binding signal is 8480 fluorescence intensity (a.u.).

With “TCCGATGTGACACGCTAAAATTTTTCTTCTCGCGGGCCTTCGGAGTCACCTAGTGCAG” as the sequence, how does the binding signal read?
Its binding signal is 9250 fluorescence intensity (a.u.).

For “CGTCACGTTTTCTATCAACTCCTTCCATACAACACCGATGCGGAGTCACCTAGTGCAG”, which binding signal is on record?
Its binding signal is 8420 fluorescence intensity (a.u.).

Which binding signal does the source give for “TTCGTTAAATTATTTTTCTTTTTCGTTTTTTTTTTTTGTTCGGAGTCACCTAGTGCAG” here?
The binding signal was 8930 fluorescence intensity (a.u.).

How did the binding signal turn out when “ACCGTCCTCGCGACCTCGCCTCTTATCATCCCGCGAATAACGGAGTCACCTAGTGCAG” was run?
The binding signal was 10900 fluorescence intensity (a.u.).

For “TGTTGTGGATGTGGATAAGACCCCAGTTATGCTAAACTGGCGGAGTCACCTAGTGCAG”, which binding signal is on record?
Its binding signal is 8340 fluorescence intensity (a.u.).

With “ACTTACTTACTTCCTCGCTCTCGCTGTCCCTCGCTCACTCCGGAGTCACCTAGTGCAG” as the sequence, how does the binding signal read?
The binding signal was 12900 fluorescence intensity (a.u.).

“CCCGCGACCAGAAACCGTACCCGCCTTCTCCCGCACCGGGCGGAGTCACCTAGTGCAG” was tested. Which binding signal did it give?
Its binding signal is 8240 fluorescence intensity (a.u.).

With “CCGCCTGCGCCGATCCCCATCCATCCATCCACCCAGCGACCGGAGTCACCTAGTGCAG” as the sequence, how does the binding signal read?
The binding signal was 9470 fluorescence intensity (a.u.).

“GCCCTCTCTCTCTCTCTCTCTCTCTCTCTCTCTCTCTCTCCGGAGTCACCTAGTGCAG” was tested. Which binding signal did it give?
Its binding signal is 11900 fluorescence intensity (a.u.).

With “GGTTTTATTTTCCACATTTAATGCCCCATGCATGTGTGTCCGGAGTCACCTAGTGCAG” as the sequence, how does the binding signal read?
Its binding signal is 8560 fluorescence intensity (a.u.).

Which binding signal does the source give for “GGCGGATTCATCCCCGGACAGGAGTAGGGTATTACTTCTTCGGAGTCACCTAGTGCAG” here?
The binding signal was 8020 fluorescence intensity (a.u.).

How did the binding signal turn out when “TCCTCACATGAGAAAGCCAGATATTACCAAGGCCAAGCACCGGAGTCACCTAGTGCAG” was run?
The binding signal was 8120 fluorescence intensity (a.u.).

With “CTGGCCGCCATCTCCGCCAATCTCGCTGAATCGGACGCCACGGAGTCACCTAGTGCAG” as the sequence, how does the binding signal read?
Its binding signal is 8460 fluorescence intensity (a.u.).

For “CTTGTGTCCGCGTCGCTCCGCCTCCGCGAGCCGAAGCAGGCGGAGTCACCTAGTGCAG”, which binding signal is on record?
Its binding signal is 8810 fluorescence intensity (a.u.).

“TTATAAGATGTTTTGACTTTGGTCAAAGTCAAACTATTTCCGGAGTCACCTAGTGCAG” was tested. Which binding signal did it give?
The binding signal was 16600 fluorescence intensity (a.u.).

“AAACCAACCACAGCTCACATTCCTTCATGCATCCATTGTACGGAGTCACCTAGTGCAG” was tested. Which binding signal did it give?
Its binding signal is 8300 fluorescence intensity (a.u.).

With “AAGAGGGTGGGTTGTTGGGGAGAGGGGAGGGAGGAGGATTCGGAGTCACCTAGTGCAG” as the sequence, how does the binding signal read?
The binding signal was 20100 fluorescence intensity (a.u.).

Which binding signal does the source give for “ATTAATATCTCTCGTACTCTTGCTCCTCTTCTTCTTCTTCCGGAGTCACCTAGTGCAG” here?
The binding signal was 10500 fluorescence intensity (a.u.).

For “ACGTATATATTTTTTTTCTTCTCCTCTTCTTTCCAAAGCTCGGAGTCACCTAGTGCAG”, which binding signal is on record?
The binding signal was 9740 fluorescence intensity (a.u.).

“CTCTTTGTTTTTTTGTCAATTGGGCATGGAATTCTTTTTACGGAGTCACCTAGTGCAG” was tested. Which binding signal did it give?
The binding signal was 14400 fluorescence intensity (a.u.).

“CAGAATTGGACGGGAGGGGAACAGTAAGAAACATCAATTACGGAGTCACCTAGTGCAG” was tested. Which binding signal did it give?
Its binding signal is 8090 fluorescence intensity (a.u.).

“TTTTCGGTTCCCAAGCCGCTCGTGAACTTCTCTCGACTCACGGAGTCACCTAGTGCAG” was tested. Which binding signal did it give?
Its binding signal is 9360 fluorescence intensity (a.u.).
